The record followed here is the supplement of paper PMC12067093, “Discovery and optimisation of a covalent ligand for TRIM25 and its application to targeted protein ubiquitination” (Chemical Science, 2025).

Protein sequences, listed by entry. Tags and fused reporters are not part of them. Lines headed by an entry give the natural chain unless they say otherwise; changes in a name come on top.
UniProt P30566: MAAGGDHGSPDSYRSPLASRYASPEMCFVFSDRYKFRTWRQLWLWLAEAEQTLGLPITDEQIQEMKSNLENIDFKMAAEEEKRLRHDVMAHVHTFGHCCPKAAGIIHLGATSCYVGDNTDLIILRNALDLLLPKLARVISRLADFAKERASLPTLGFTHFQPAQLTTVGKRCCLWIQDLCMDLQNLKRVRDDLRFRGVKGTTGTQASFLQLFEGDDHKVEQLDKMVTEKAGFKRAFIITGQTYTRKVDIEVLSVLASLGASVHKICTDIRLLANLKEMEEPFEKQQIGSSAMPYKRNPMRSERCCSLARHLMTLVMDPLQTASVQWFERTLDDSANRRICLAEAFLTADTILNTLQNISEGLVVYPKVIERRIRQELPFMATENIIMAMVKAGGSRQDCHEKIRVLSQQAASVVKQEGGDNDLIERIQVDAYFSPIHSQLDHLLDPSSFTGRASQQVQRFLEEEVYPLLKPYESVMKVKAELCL
UniProt Q9NZ32, whole entry, looked up: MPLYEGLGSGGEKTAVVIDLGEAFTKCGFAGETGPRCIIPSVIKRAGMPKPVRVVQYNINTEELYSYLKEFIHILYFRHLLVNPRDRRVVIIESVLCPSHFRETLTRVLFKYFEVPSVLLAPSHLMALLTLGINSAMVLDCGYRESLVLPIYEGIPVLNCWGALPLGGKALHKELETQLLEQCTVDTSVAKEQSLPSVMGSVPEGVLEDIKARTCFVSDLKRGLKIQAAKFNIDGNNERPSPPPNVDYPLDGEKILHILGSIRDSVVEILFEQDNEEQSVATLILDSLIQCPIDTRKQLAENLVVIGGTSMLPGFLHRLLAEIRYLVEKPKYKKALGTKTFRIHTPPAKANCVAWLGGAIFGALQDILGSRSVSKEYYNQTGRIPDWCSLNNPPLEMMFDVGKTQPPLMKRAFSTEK
UniProt P55265: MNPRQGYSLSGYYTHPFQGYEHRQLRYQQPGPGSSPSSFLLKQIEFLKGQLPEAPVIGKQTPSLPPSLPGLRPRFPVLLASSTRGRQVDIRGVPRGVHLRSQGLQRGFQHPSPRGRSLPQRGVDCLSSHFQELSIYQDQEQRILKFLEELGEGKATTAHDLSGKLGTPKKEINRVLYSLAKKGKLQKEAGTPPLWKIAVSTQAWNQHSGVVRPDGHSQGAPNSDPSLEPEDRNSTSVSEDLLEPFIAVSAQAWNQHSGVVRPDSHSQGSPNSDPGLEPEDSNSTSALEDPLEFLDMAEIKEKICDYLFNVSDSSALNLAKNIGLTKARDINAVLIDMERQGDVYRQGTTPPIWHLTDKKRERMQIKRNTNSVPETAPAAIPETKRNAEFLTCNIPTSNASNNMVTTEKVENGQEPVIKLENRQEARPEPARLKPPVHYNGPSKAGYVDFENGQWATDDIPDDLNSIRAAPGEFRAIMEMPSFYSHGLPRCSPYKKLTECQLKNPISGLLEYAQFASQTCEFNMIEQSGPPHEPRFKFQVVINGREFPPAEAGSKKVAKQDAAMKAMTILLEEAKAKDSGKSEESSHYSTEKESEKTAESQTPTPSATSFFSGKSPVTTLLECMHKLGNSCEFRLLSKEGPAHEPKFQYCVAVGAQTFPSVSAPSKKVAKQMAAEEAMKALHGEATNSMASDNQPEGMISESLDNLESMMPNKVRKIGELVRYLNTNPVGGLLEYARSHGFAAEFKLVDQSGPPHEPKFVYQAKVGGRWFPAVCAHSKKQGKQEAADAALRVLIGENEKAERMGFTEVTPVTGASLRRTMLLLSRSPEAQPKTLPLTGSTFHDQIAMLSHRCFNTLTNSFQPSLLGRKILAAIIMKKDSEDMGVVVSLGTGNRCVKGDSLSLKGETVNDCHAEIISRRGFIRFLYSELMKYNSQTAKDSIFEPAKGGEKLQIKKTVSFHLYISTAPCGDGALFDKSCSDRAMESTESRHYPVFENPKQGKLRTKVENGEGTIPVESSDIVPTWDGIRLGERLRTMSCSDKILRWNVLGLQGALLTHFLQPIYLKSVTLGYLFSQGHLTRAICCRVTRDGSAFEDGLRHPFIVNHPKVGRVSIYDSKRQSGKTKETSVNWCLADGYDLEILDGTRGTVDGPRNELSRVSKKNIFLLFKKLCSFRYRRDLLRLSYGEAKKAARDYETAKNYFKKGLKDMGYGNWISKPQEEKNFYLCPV
UniProt P35573: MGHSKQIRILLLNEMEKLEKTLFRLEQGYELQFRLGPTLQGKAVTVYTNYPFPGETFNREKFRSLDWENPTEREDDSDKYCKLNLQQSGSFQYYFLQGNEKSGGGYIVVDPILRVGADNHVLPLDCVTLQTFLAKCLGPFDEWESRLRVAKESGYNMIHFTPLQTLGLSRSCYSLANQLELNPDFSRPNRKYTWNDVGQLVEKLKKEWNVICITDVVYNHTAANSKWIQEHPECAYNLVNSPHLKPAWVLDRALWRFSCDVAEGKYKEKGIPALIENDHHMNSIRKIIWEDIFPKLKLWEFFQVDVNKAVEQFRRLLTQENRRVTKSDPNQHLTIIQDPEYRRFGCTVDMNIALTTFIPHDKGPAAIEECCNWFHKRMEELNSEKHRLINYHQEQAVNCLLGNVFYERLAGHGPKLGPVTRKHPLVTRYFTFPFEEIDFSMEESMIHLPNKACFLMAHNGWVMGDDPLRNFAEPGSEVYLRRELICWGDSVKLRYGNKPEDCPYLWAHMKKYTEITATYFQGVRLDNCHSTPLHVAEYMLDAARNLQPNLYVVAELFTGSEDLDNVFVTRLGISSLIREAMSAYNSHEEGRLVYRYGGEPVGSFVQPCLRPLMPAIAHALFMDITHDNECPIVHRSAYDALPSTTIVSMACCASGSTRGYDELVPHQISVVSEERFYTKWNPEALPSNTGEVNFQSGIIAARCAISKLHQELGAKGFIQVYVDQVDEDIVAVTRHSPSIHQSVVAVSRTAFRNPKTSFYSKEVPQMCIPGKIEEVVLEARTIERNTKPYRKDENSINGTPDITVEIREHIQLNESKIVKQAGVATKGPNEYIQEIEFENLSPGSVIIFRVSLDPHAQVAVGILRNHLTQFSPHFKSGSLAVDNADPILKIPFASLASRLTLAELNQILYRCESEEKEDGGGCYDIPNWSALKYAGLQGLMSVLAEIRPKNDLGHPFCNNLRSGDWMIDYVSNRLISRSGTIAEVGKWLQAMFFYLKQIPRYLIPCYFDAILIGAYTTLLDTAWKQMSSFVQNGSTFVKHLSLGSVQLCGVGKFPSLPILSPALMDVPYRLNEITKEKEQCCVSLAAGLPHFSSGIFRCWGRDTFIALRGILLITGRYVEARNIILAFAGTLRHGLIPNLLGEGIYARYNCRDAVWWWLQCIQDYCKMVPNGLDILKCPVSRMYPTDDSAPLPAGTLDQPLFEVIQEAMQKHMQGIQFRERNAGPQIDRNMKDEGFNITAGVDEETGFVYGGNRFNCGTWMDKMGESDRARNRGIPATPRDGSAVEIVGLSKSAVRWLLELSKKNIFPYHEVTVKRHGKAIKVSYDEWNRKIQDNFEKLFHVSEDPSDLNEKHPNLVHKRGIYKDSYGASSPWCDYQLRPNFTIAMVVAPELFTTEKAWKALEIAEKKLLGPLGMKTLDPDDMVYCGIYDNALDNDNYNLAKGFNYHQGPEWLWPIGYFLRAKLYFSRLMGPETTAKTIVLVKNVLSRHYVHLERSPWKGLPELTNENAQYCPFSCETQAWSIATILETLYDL
UniProt O14672: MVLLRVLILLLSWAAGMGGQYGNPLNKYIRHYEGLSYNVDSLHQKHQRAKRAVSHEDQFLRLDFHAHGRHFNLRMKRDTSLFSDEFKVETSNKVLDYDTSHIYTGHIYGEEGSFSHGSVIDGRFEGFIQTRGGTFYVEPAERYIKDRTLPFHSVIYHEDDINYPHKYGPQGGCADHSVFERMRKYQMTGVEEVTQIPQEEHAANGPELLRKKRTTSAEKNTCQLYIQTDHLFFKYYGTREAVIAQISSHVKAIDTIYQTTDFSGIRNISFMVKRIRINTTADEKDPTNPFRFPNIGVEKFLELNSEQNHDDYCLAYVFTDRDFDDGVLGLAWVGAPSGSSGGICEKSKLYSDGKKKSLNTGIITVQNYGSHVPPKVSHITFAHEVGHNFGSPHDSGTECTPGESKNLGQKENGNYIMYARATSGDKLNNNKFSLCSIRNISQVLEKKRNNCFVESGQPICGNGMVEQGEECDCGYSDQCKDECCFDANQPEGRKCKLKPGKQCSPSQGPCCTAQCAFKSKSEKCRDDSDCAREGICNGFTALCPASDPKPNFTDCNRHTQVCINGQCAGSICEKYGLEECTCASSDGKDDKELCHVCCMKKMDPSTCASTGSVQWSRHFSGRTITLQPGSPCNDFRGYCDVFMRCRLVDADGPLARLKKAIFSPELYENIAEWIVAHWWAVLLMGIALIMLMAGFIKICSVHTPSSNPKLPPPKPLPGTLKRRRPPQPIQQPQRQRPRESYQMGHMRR
UniProt P11766: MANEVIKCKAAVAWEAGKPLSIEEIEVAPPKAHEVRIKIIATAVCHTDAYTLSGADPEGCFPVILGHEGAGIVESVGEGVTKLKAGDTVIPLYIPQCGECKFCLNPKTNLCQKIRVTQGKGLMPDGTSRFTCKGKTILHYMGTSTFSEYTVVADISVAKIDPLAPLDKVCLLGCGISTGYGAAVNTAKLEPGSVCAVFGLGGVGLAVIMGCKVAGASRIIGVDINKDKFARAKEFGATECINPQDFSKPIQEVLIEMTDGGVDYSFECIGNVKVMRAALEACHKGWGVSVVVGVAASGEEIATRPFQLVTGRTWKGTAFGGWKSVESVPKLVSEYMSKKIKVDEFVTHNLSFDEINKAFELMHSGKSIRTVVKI
UniProt O95490: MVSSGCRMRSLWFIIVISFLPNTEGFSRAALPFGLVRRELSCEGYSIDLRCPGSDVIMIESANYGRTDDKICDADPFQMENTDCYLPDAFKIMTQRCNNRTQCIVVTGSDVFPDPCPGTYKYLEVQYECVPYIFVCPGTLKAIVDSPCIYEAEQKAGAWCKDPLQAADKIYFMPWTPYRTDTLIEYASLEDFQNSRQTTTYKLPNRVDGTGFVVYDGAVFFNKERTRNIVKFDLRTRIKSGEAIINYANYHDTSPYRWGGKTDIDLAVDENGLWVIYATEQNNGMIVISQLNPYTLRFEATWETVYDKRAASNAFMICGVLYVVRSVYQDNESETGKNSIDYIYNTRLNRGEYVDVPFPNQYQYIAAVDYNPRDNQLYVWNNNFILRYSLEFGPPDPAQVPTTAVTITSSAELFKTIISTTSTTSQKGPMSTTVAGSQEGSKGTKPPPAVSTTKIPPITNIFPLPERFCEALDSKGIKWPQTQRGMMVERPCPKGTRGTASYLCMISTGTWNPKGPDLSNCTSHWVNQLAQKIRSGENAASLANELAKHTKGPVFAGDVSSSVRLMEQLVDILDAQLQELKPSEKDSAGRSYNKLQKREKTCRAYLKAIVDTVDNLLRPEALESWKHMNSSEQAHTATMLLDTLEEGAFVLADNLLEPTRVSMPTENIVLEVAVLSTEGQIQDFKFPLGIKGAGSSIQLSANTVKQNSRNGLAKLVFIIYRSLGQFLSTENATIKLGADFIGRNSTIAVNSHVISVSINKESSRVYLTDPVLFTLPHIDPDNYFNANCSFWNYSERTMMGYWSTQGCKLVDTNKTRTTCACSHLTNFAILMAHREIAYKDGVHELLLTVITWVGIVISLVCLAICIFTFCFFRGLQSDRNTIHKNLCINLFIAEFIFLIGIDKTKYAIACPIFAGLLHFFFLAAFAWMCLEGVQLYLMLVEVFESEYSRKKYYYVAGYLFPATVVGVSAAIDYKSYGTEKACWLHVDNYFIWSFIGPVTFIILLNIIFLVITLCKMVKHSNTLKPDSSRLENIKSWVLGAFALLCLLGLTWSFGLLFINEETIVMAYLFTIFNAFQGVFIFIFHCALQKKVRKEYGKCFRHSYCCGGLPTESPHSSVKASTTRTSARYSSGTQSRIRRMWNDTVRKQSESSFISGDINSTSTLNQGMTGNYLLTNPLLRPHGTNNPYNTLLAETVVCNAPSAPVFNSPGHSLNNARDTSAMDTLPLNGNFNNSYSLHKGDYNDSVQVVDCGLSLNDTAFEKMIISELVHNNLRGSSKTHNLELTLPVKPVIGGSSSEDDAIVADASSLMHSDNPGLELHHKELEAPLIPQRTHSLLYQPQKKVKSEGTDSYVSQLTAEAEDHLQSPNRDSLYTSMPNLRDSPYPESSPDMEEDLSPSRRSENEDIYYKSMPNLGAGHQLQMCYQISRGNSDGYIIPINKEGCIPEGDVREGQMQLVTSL
UniProt Q96EY9: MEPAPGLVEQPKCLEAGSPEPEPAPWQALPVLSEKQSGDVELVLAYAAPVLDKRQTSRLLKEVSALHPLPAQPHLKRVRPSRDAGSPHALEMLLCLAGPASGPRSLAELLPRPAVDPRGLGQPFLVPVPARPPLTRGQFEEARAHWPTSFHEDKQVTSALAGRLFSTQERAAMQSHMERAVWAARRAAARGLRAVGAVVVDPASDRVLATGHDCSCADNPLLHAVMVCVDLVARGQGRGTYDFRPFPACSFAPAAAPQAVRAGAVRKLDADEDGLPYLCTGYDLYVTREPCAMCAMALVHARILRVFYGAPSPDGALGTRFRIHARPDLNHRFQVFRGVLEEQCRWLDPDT

The list shows a part of the results.
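Note: competitive profiling in live THP-1 cells: cysteine peptides tagged with an iodoacetamide desthiobiotin (IA-DTB) probe, intensity after compound treatment relative to DMSO-treated cells.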

Compound in this test: Cc1cc(ccc1-c1ccccc1)C(=O)N1CCCN(CC1)C(=O)CCl [compound 10]
In words: probe-labelled cysteine peptide fold change vs DMSO (competition) (log2 fold change); higher = less target engagement (more negative = stronger competition). Conditions: 50 µM; THP-1; incubation time: 4 h.
As for “ACSL4_O60488_595_NCPLIDNICAFAK (UniProt O60488)”, the “probe-labelled cysteine peptide fold change” value was -0.126. The same measure for “ADPGK_Q9BRR6_178_VLLCGPVGPK (UniProt Q9BRR6)”: 0.263; for “AFG3L2_Q9Y4W6_313_DVAGCEEAK (UniProt Q9Y4W6)”: 0.29. The figure for ADSL_P30566_266_ICTDIR (UniProt P30566) is 0.0905; for “ACTR10_Q9NZ32_27_CGFAGETGPR (UniProt Q9NZ32)” it is 0.138.

Take “ADAR_P55265_909_GETVNDCHAEIISR (UniProt P55265)”: the “probe-labelled cysteine peptide fold change” value was 0.255.

Regarding “AGL_P35573_234_WIQEHPECAYNLVNSPHLK (UniProt P35573)”, the “probe-labelled cysteine peptide fold change” value worked out at 0.149.

As to “ACTR3B_Q9P1U1_408_DYEEYGPSICR (UniProt Q9P1U1)”, the “probe-labelled cysteine peptide fold change” value came out at 0.0944.

With “ADGRL3_Q9HAR2_36_ELSCESYPIELR (UniProt Q9HAR2)”, the “probe-labelled cysteine peptide fold change” value came out at 0.0665. The figure for “ACSF3_Q4G176_139_KHPAAQLEYVICDSQSSVVLASQEYLELLSPVVR (UniProt Q4G176)” is 0.319. The figure for “ADSL_P30566_99_HDVMAHVHTFGHCCPK (UniProt P30566)” is -0.406; for “ADAT1_Q9BUB4_263_CVPGEAGDSGKPGAAFHQVGLLR (UniProt Q9BUB4)” it is -0.15. On to “AFTPH_Q6ULP2_583_DSCSWAAFGDQQATESHHR (UniProt Q6ULP2)”, for which the “probe-labelled cysteine peptide fold change” value was -0.394.

As to “ACTR3_P61158_8+12_LPACVVDCGTGYTK (UniProt P61158)”, the “probe-labelled cysteine peptide fold change” value was -0.313. Regarding “ADAM10_O14672_435_FSLCSIR (UniProt O14672)”, the “probe-labelled cysteine peptide fold change” value was -0.123. The same measure for “ACTR10_Q9NZ32_215_TCFVSDLKR (UniProt Q9NZ32)”: -0.263; for “ACOT9_Q9Y305_299_SLEICHPQER (UniProt Q9Y305)”: 0.181; for “ACSL4_O60488_552_WFCTGDIGEFHPDGCLQIIDR (UniProt O60488)”: -0.177.

On to ADH5_P11766_103_FCLNPK (UniProt P11766), for which the “probe-labelled cysteine peptide fold change” value was -0.577. The same measure for “ADAR_P55265_649_FQYCVAVGAQTFPSVSAPSKK (UniProt P55265)”: -0.443.

Regarding “ADGRL2_O95490_1250_GDYNDSVQVVDCGLSLNDTAFEK (UniProt O95490)”, the “probe-labelled cysteine peptide fold change” value was -0.28. The figure for “AGK_Q53H12_408_LQFFCDPR (UniProt Q53H12)” is 0.247; for “ADAM9_Q13443_575_LQCENVQEIPVFGIVPAIIQTPSR (UniProt Q13443)” it is 0.239; for ADNP_Q9H2P0_226_CLFMPK (UniProt Q9H2P0) it is 0.0181. The figure for “ADGRA2_Q96PE1_196_VVDLGTEFLTCDCHLR (UniProt Q96PE1)” is 0.00643.

In the case of “ADGRL2_O95490_42_RELSCEGYSIDLR (UniProt O95490)”, the “probe-labelled cysteine peptide fold change” value came out at 0.0767. The same measure for “ACSL4_O60488_564_WFCTGDIGEFHPDGCLQIIDR (UniProt O60488)”: 0.17.

Take “ADSS_P30520_182_MCDLVSDFDGFSER (UniProt P30520)”: the “probe-labelled cysteine peptide fold change” value was found to be 0.121. As for “ACSF2_Q96CM8_254_QHLDQLQYNQQFLSCHDPINIQFTSGTTGSPK (UniProt Q96CM8)”, the “probe-labelled cysteine peptide fold change” value was -0.457. The figure for “AGL_P35573_767_EVPQMCIPGKIEEVVLEAR (UniProt P35573)” is -0.537. The same measure for “ADO_Q96SZ5_183_AEYTEASGPCILTPHR (UniProt Q96SZ5)”: 0.0874; for “ACTN1_P12814_774_ACLISLGYDIGNDPQGEAEFAR (UniProt P12814)”: 0.147. “ADAM17_P78536_184_VCGYLK (UniProt P78536)”: the “probe-labelled cysteine peptide fold change” value was 0.028. The figure for “ADA_P00813_262_QENMHFEICPWSSYLTGAWKPDTEHAVIR (UniProt P00813)” is -0.0732; for “ADAM10_O14672_607_DDKELCHVCCMKKMDPSTCASTGSVQWSR (UniProt O14672)” it is -0.0642.

As for “ADH5_P11766_174_VCLLGCGISTGYGAAVNTAK (UniProt P11766)”, the “probe-labelled cysteine peptide fold change” value is -0.0539. The same measure for “ADAT3_Q96EY9_95_DAGSPHALEMLLCLAGPASGPR (UniProt Q96EY9)”: -0.00577.
